Laboratory results taken from PubChem BioAssay AID588590 (National Center for Advancing Translational Sciences (NCATS), 2011).
About 4,000 (1%) of roughly 390,000 compounds were called active. Inconclusive results, whose numbers are uncertain, are shown with a selection of clear calls. The call rests on the fitted dose curve; in most records, active means well fitted inhibition curve with a large enough effect; inconclusive means small, poorly fitted or top-dose-only effect, or another doubt; inactive means no such curve, though single readings can be large or run the other way. Potencies beside an inconclusive call are fits to weak or partial responses and may not hold up.

Protein sequences, listed by entry. Tags and fused reporters are not part of them. Lines headed by an entry give the natural chain unless they say otherwise; changes in a name come on top.
UniProt Q9UNA4: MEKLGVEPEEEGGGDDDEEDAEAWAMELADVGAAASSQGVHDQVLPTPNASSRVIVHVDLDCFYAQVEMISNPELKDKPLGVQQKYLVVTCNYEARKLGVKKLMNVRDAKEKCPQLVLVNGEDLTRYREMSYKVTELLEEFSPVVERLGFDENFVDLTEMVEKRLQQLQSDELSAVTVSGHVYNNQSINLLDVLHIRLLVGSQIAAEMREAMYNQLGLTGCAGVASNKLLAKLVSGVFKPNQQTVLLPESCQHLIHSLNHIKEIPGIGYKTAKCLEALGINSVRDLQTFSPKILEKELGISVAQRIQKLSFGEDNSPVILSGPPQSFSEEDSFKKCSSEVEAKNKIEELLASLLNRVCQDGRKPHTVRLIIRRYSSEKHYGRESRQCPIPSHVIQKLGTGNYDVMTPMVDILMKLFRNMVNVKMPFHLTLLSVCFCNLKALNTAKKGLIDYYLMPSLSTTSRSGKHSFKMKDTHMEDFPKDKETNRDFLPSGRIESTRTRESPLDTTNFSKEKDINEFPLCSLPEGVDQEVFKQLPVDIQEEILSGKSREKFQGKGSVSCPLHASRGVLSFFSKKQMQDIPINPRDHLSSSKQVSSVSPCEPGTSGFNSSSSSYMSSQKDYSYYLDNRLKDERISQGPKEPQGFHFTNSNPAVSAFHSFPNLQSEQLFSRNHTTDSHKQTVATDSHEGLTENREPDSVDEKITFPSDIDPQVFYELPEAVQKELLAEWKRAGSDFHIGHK

Biological target: DNA polymerase iota (Homo sapiens) (UniProt Q9UNA4)
Assay: qHTS for Inhibitors of Polymerase Iota
Conditions: Pol iota fluorescent replication assay, 10 min; series mostly up to 115 µM
In short: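 Pol iota at 10 nM preincubated 15 min with compounds at room temperature; reaction started with fluorescent substrate, 50 nM final. Fluorescence read kinetically at 0 and 10 min; buffer-only wells as negative control.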
Potency means the concentration at half of the fitted maximal effect.

Potency, active:
O=C1c2ccccc2C(=O)c2[nH]c(=O)[nH]c21 14.1 µM
COc1ccc(S(=O)(=O)NCCSCc2ccco2)cc1OC 44.7 µM
O=C(Nc1ccc(-c2nc3ccc(NC(=O)c4cccs4)cc3[nH]2)cc1)c1cccs1 20 µM
COc1cc([N+](=O)[O-])cc(/C=C2/SC(=S)N(Cc3ccccc3)C2=O)c1O 14.1 µM

Potency, inactive:
CCc1ccccc1NNC(=O)c1sccc1Cl
Cc1ccc2nc(NC(=O)c3cc(-c4ccco4)nc4ccccc34)sc2c1
CCOC(=O)N1CCN(c2cc(C)c(C(C)=O)cc2F)CC1
C=C1C=C(C(F)F)n2ncc(C(=O)NCc3ccc(OC)cc3)c2N1
COc1cc(C(=O)NCCOc2ccc(F)cc2)c(Br)c(OC)c1OC
CC(=O)Nc1ccc(NS(=O)(=O)c2ccc(-c3cnc(C4CC4)o3)cc2)cc1
COc1ccc(Cl)cc1NC(=O)CSc1nc2sccc2c(=O)[nH]1
CCOC(=O)c1cnc(-n2nc(C)cc2C)nc1NCCc1ccccc1
CC(C)(C)NC(=S)N/N=C\c1ccc(-c2ccc([N+](=O)[O-])cc2)o1
C=C[C@@H]1c2cc(C)ccc2N(S(=O)(=O)c2ccc(C)cc2)[C@H](c2ccc(C(C)(F)F)cc2)C1(C#N)C#N
C#CCOc1ccc(C2C(C(=O)OC)=C(C)NC3=C2C(=O)c2ccccc23)cc1OCC (centres undefined)
CC(=O)NS(=O)(=O)c1cccnc1Nc1ccc(Cl)cc1

Potency, inconclusive:
O=C1C2CCCCN2C(=O)N1CCCCN1CCN(c2ccc(F)cc2)CC1 (centres undefined) 39.8 µM [inhibitor, partial curve, poor fit]
COc1ccc(/C=C2\C(=N)N3N=C(CC(=O)N4CCOCC4)SC3=NC2=O)cc1 12.6 µM [inhibitor, partial curve, poor fit]
CC(C(=O)O)c1cccc(Oc2ccccc2)c1 (centres undefined) 79.4 µM [inhibitor, partial curve, poor fit]
Nc1nc(SCc2nc3scc(-c4cccs4)c3c(=O)[nH]2)n[nH]1 12.6 µM [inhibitor, full curve, poor fit]
CC(=O)N1c2ccc(S(=O)(=O)NCCC(=O)NCc3ccc(N(C)C)cc3)cc2CC1C (centres undefined) 89.1 µM [inhibitor, partial curve, poor fit]
COc1ccc(CN2C(=O)c3cccnc3C2O)cc1 (centres undefined) 1 µM [inhibitor, full curve, poor fit]
CCc1nonc1NC(=O)COc1cc(C)c(Cl)c(C)c1 79.4 µM [inhibitor, single point]
CC(=O)CSc1nnc(-c2ccc(S(=O)(=O)N3CCCC3)cc2)n1C 89.1 µM [inhibitor, partial curve, poor fit]
O=C1c2ccccc2C(=O)N1CC#CCN1CCN(C(c2ccccc2)c2ccccc2)CC1 1.12 µM [inhibitor, partial curve, poor fit]
CCOC(=O)CC(=O)CSc1nc(C)cc(C)c1C#N 0.891 µM [inhibitor, full curve, poor fit]
COc1ccc(OC)c(/C=C2\SC(=S)N(NS(=O)(=O)c3ccccc3)C2=O)c1 10 µM [inhibitor, full curve]
Oc1ccc(C=Nc2ccc(N3CCOCC3)cc2)c(O)c1 15.8 µM [inhibitor, full curve, poor fit]
CCOc1cc(N2C(=O)CC3CS(=O)(=O)CC32)c(OCC)cc1NC(=O)c1ccccc1 (centres undefined) 28.2 µM [inhibitor, single point]
CCOC(=O)c1cc2c(=O)n3ccccc3nc2n(Cc2ccco2)c1=NC(=O)c1ccccc1OCC 8.91 µM [inhibitor, full curve, poor fit]
Cc1ccc(NC(=O)c2nnn(CC(=O)Nc3ccccc3)c2N)cc1C 0.631 µM [inhibitor, full curve, poor fit]
COc1ccccc1N=Nc1c(C)[nH]n(-c2ccccc2)c1=O 12.6 µM [inhibitor, partial curve, poor fit]
CC(C)c1nnc(NC(=O)Cn2nc(-c3ccc4c(c3)OCCO4)ccc2=O)s1 17.8 µM [inhibitor, partial curve, poor fit]
COc1ccc2c(c1)NC1(O)c3ccccc3C(=O)C21O (centres undefined) 10 µM [inhibitor, full curve, poor fit]
COc1ccc(NC(=O)c2cc3ccccc3cc2O)cc1 1.58 µM [inhibitor, full curve, poor fit]
CC(=O)NC(=O)NC1OC(=O)C(Cl)=C1Cl (centres undefined) 20 µM [inhibitor, partial curve, poor fit]
CC1CCCC(NC(=O)CSc2cccc[n+]2[O-])C1C (centres undefined) 56.2 µM [inhibitor, partial curve, poor fit]
COC(=O)c1ccccc1NC(=O)CSc1nc2sc3c(c2c(=O)[nH]1)CCCC3 11.2 µM [inhibitor, full curve]
CCOc1ccc(NC(=O)c2ccc(NC(=O)c3ccc(NC(N)=O)cc3)cc2)cc1 10 µM [inhibitor, partial curve, poor fit]
Nc1nnnn1/N=C/c1ccccc1OCc1ccc(Cl)cc1Cl 31.6 µM [inhibitor, full curve, poor fit]
O=C(/C=C/c1ccco1)Nc1cc(Cl)ccc1C(=O)O 100 µM [inhibitor, partial curve, poor fit]
Cc1ccc(C2N(c3nccs3)C(=O)C3CCCN32)cc1 (centres undefined) 20 µM [inhibitor, partial curve, poor fit]
O=C(NC1CCN(Cc2ccccc2)CC1)c1ccccc1 12.6 µM [inhibitor, single point]
CN(C)C1C(=O)C(C(N)=O)=C(O)[C@@]2(O)C(=O)C3=C(O)c4c(O)ccc(Cl)c4[C@@H](O)C3C[C@@H]12 (some centres undefined) 17.8 µM [inhibitor, partial curve]
Cc1ccc(S(=O)(=O)N(C)C2(C)CCS(=O)(=O)C2)cc1 (centres undefined) 100 µM [inhibitor, single point]
O=C(CSc1nc(-c2ccco2)nc2cc(=O)[nH]n12)Nc1ccccc1Cl 89.1 µM [inhibitor, single point]
O=C(O)c1ccc(NC(=O)c2ccc(COc3ccccc3)o2)cc1 70.8 µM [inhibitor, partial curve, poor fit]
Cc1cc(O)c(C(C)C)cc1N=Cc1cc([N+](=O)[O-])ccc1O 12.6 µM [inhibitor, full curve, poor fit]
CC/C(O)=C(/C#N)c1nnc2n1CCCCC2 79.4 µM [inhibitor, single point]
O=C(O)/C(=C/c1ccco1)NC(=O)c1ccc(Br)o1 22.4 µM [inhibitor, partial curve, poor fit]
CCc1ccc[n+](-c2[nH]c(=O)sc2/C=N/NC([S-])=Nc2ccccc2)c1 25.1 µM [inhibitor, full curve, poor fit]
CC(=O)c1c(C)[nH]c(C(=O)OCC(=O)c2ccc3c(c2)NC(=O)CO3)c1C 35.5 µM [inhibitor, full curve]
N/C(=N\OC(=O)Cc1ccccc1)c1ccccc1Cl 2.51 µM [inhibitor, partial curve, poor fit]
CC(=O)Nc1sc(N/N=C/c2ccc(O)cc2)nc1-c1ccc(C)cc1 0.631 µM [inhibitor, full curve, poor fit]
CCCc1ncc(C[n+]2ccccc2C)c(N)n1 20 µM [inhibitor, single point]
O=C(NCC(c1ccc(F)cc1)N1CCOCC1)c1ccc(OCc2ccccc2)cc1 (centres undefined) 89.1 µM [inhibitor, single point]
OC(COCC1COc2ccccc2O1)CN1CCc2ccccc2C1 (centres undefined) 25.1 µM [inhibitor, single point]
COc1ccc(N(C(=O)c2cnccn2)C(C(=O)NC2CCCCC2)c2ccccc2)cc1 (centres undefined) 89.1 µM [inhibitor, partial curve, poor fit]
COc1cc2c(cc1OC)C(c1ccco1)CC(=O)N2 (centres undefined) 39.8 µM [inhibitor, single point]
c1ccc(-c2cncnc2)cc1 3.98 µM [inhibitor, partial curve, poor fit]
Cc1ccc(NC(=O)CNS(=O)(=O)c2ccc(F)cc2)cc1C 25.1 µM [inhibitor, single point]
CCCCCCCCCCCCCCCC(=O)NCC(COP(=O)([O-])OCC[N+](C)(C)C)OCC (centres undefined) 1.12 µM [inhibitor, full curve, poor fit]
O=C(N/N=C/c1ccncc1)c1ccc(COc2cccc3cccnc23)cc1 89.1 µM [inhibitor, partial curve, poor fit]
CC(=O)/C(C#N)=C1\NC(=O)C(Cc2ccccc2Cl)S1 (centres undefined) 39.8 µM [inhibitor, partial curve, poor fit]

Sorted by heavy-atom count (high to low): part of the list above.
Potency, inconclusive:
CCCCCCCCCCCCCCCC(=O)NCC(COP(=O)([O-])OCC[N+](C)(C)C)OCC (centres undefined) 1.12 µM [inhibitor, full curve, poor fit]
CC(=O)Nc1sc(N/N=C/c2ccc(O)cc2)nc1-c1ccc(C)cc1 0.631 µM [inhibitor, full curve, poor fit]
CC(=O)CSc1nnc(-c2ccc(S(=O)(=O)N3CCCC3)cc2)n1C 89.1 µM [inhibitor, partial curve, poor fit]
COc1cc2c(cc1OC)C(c1ccco1)CC(=O)N2 (centres undefined) 39.8 µM [inhibitor, single point]
CCCc1ncc(C[n+]2ccccc2C)c(N)n1 20 µM [inhibitor, single point]
